59 compounds from PubChem BioAssay AID2685 (National Center for Advancing Translational Sciences (NCATS), 2010) can be followed below.

A word on the AC50: it is the concentration giving half of the maximal activity seen.

The nature of the assay: qHTS Assay for Lipid Storage Modulators in Drosophila S3 Cells.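 For cell number change: cells counted by Cell Tracker Red CMTPX staining in the red channel.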 To be noted: BODIPY lipid droplet fluorescence, 18-24 h; for cell number change: measured here: cell count max response, cells fed with added oleic acid. The method, boiled down: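 Drosophila S3 cells loaded with oleic acid (400 uM, as added) and compounds at several concentrations; lipid droplets imaged by 488-nm laser-scanning cytometry, 500–530 nm intensity and object ratio to cell channel. Percent activity normalized to 20 uM Triacsin C.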
In general terms: In qHTS, concentration-response curves come from the screen itself.

[1] abbreviates: measured here: cell number channel AC50, cells fed with added oleic acid.
Where [2] appears, read: measured here: lipid fluorescence (Fed channel) AC50, cells fed with added oleic acid.

This is one part of the list. Further columns of the screen follow, without active or inactive calls. The list favours compounds with an active or inconclusive main result. Words in brackets tell the shape of the fitted curve; partial curves, single points and poor fits give uncertain potencies.

Turning to `CCOc1ccccc1OCC(=O)NC1CCCCC1`, the cell number change was 38.7%. Further, the AC50 under setting [1] is 3.26 µM [rising, full curve].
As to `COc1ccc(NS(=O)(=O)c2cc(NC(=O)c3cc(=O)c4ccccc4o3)ccc2OC)cc1`, the cell number change was -22.7%. The AC50 under setting [2] was 29.1 µM [falling, single point].
In the case of `CC1=N/C(=C\c2ccc3c(c2)OCO3)C(=O)N1c1ccc(C(=O)O)cc1`, the cell number change was 2.77%.
As to `O=C(COC(=O)c1ccccc1O)NCC1COc2ccccc2O1` (stereo not drawn), the cell number change worked out at 19.5%. Moreover, under setting [2], the AC50 was 2.31 µM [rising, partial curve, poor fit].
With `CN1CCc2c1nc1ccccc1c2N` (tested in a mixture with another compound), the AC50 under setting [2] is 6.51 µM [falling, single point].
Take `Cc1noc(C)c1CSCC(=O)Nc1cc(Cl)ccc1N1CCCCC1`: under setting [1], the AC50 was 2.91 µM [rising, single point].
`CCn1cc(C(=O)OCc2ccc(F)cc2)c(=O)c2ccc(C)nc21`: the cell number change came out at 64.4%. In addition, the half-maximal activity concentration (AC50) under setting [1] is 29.1 µM [rising, single point]. For the same compound, the AC50 under setting [2] is 0.326 µM [rising, full curve].
Turning to `O=C(CCl)Nc1ccccc1Sc1ccc(Cl)cc1`, the cell number change was 8.58%. Besides, the AC50 under setting [2] is 1.84 µM [falling, partial curve].
Regarding `CCCCn1c(SCC(=O)Nc2cc(C(F)(F)F)cc(C(F)(F)F)c2)nnc1C(CC)N(C)C` (stereo not drawn), the cell number change was -40.8%. Further, under setting [1], the AC50 is 9.2 µM [falling, partial curve, poor fit]. The AC50 under setting [2] is 2.59 µM [falling, full curve].
Consider `CCOc1ccc(NC(=O)COC(=O)CCN2C(=O)C3CC=CCC3C2=O)cc1OCC` (stereo not drawn), for which the cell number change is -26.1%. Also, under setting [2], the AC50 is 3.26 µM [rising, single point].
For the compound `O=S(=O)(NCC1CCCO1)c1cc(Cl)ccc1Cl` (stereo not drawn), the cell number change amounted to 44.1%. Moreover, the AC50 under setting [1] is 10.3 µM [rising, partial curve, poor fit].
`CCCCCCSc1ccc([C@H]2N[C@@](C)(C(=O)OC)[C@H]3C(=O)N(CC)C(=O)[C@@H]23)cc1`: the cell number change was -40.4%. Also, the AC50 under setting [1] is 32.6 µM [falling, single point]. In addition, the AC50 under setting [2] is 23.1 µM [falling, partial curve, poor fit].
As for `COc1ccc(CC(=O)NNC(=O)c2cc(Cl)ccc2OC)cc1`, the cell number change was found to be 96.8%. The AC50 under setting [1] is 29.1 µM [rising, single point].
With `O=C1C(=O)N(CCN2CCOCC2)C(c2cccc(Cl)c2)/C1=C(/O)c1ccc2c(c1)OCO2` (stereo not drawn), the cell number change was 14%. Besides, the AC50 under setting [2] was 0.146 µM [falling, full curve, poor fit].
As to `CC(C)CC[n+]1ccn(-c2nc3ccccc3nc2[N-]S(=O)(=O)c2ccccc2)c1`, the cell number change was -13.2%. In addition, the AC50 under setting [2] is 0.164 µM [falling, full curve, poor fit].
`Cc1nc2ccc(S(=O)(=O)N(C)CC(=O)NCCc3ccccc3)cc2s1`: the cell number change is 16%. Also, the AC50 under setting [2] was 0.0517 µM [rising, full curve, poor fit].
Regarding `CC(=O)c1cccc(NC(=O)c2ccc(S(=O)(=O)N3CCCC3)cc2)c1`, the cell number change is 23.9%. Also, the concentration at half-maximal activity (AC50) under setting [2] was 0.231 µM [falling, full curve, poor fit].
Regarding `CCC(C)c1ccccc1N1CC(C(=O)NCCCn2nc(C)cc2C)CC1=O` (stereo not drawn), the cell number change was 21.8%. Moreover, under setting [1], the AC50 was 0.0517 µM [rising, full curve, poor fit]. The AC50 under setting [2] was 0.116 µM [rising, full curve, poor fit].
Turning to `CCOC(=O)C(CC)Sc1nc2c(c(=O)[nH]c(=O)n2C)n1CCc1ccccc1` (stereo not drawn), the cell number change is -29%.
Take `COc1cccc(NC(=O)c2ccc(NC(=O)C3CC(=O)OC34CCCCC4)cc2)c1` (stereo not drawn): the cell number change is 117%. Moreover, under setting [1], the AC50 was 23.1 µM [rising, partial curve, poor fit].
Take `CSc1nc(N2CCOCC2)c2c3c(sc2n1)CCC3`: the cell number change is -21.9%.
As to `O=C(/C=C/c1cccs1)N1CCN(c2ccccc2F)CC1`, the cell number change was -52.2%. The AC50 under setting [1] is 0.517 µM [falling, full curve]. Besides, the AC50 under setting [2] is 4.11 µM [falling, single point].
Take `COc1ccc2c(CC(=O)Nc3nnc(C4CC4)s3)coc2c1`: the AC50 under setting [2] was 6.51 µM [rising, single point].
Take `N#C/C(=C(/O)c1cccs1)c1nnc2n1CCCCC2`: the cell number change was -42.2%. Moreover, under setting [1], the AC50 was 8.2 µM [falling, partial curve]. Moreover, the AC50 under setting [2] was 29.1 µM [falling, single point].
With `CN(C)CCCn1c(NC(=O)C2CCCCC2)nc2ccccc21`, the cell number change is -14.6%. For the same compound, the AC50 under setting [2] is 1.03 µM [falling, full curve].
Regarding `Cc1ccc(/C=C/C(=O)NC2CCS(=O)(=O)C2)cc1` (stereo not drawn), the cell number change was 31%. In addition, the AC50 under setting [1] is 3.26 µM [rising, full curve]. Moreover, the AC50 under setting [2] is 0.164 µM [rising, full curve, poor fit].
As to `O=S(=O)(Nc1nccs1)c1ccc2c(c1)OCCO2`, the cell number change is -2.67%. Besides, the AC50 under setting [2] is 0.00461 µM [falling, full curve, poor fit].
In the case of `Cc1nc2cc(-c3ccsc3-n3c(C)ccc3C)[nH]n2c(=O)c1Cl`, the cell number change amounted to 29.1%. Besides, the half-maximal activity concentration (AC50) under setting [2] was 0.82 µM [falling, full curve].
As for `CC(C)N1CC(COc2ccc(Cl)cc2Cl)OC1=O` (stereo not drawn), the cell number change was found to be 22.2%. Also, the AC50 under setting [2] is 2.31 µM [falling, partial curve].
Consider `CCc1cccc(NC(=O)CCC(=O)N2CCSc3ccccc32)c1`, for which the cell number change was determined as 6.05%.
In the case of `CCOc1ccc(C(=O)CCN2CCCCCC2)cc1`, the cell number change was -35.2%. Under setting [1], the AC50 is 8.2 µM [falling, partial curve]. The AC50 under setting [2] was 16.4 µM [falling, partial curve].
Regarding `Cc1ccc2nc(NC(=O)CSCC(=O)OCC(=O)c3ccc(Br)cc3)sc2c1`, the cell number change worked out at 37.1%. Under setting [1], the AC50 was 29.1 µM [rising, single point]. The concentration at half-maximal activity (AC50) under setting [2] is 13 µM [falling, partial curve, poor fit].
Turning to `CCOC(=O)N/N=C(C)/C=C/c1ccccc1`, the cell number change is -3.18%. Further, the AC50 under setting [2] was 2.31 µM [rising, partial curve].
For the compound `COc1cc(Cl)c(C)cc1NC(=O)CSc1nnc(CCC(=O)O)c(=O)[nH]1`, the cell number change stood at 55.6%. In addition, under setting [2], the AC50 is 3.26 µM [falling, single point].
For the compound `COc1ccc(CCNC(=O)c2cc(=O)[nH]c3ccccc23)cc1`, the cell number change was 8.57%. Besides, the AC50 under setting [2] was 10.3 µM [rising, partial curve].
For `CCc1ccccc1NC(=O)CNC(=O)c1ccc(-n2cncn2)c([N+](=O)[O-])c1`, the cell number change was -25%. Also, the AC50 under setting [2] is 29.1 µM [falling, single point].
In the case of `CCOc1[nH]n(-c2ccccc2)c(=O)c1C=Nc1ccc(OC)cc1`, the cell number change was found to be 43.3%.
On to `O=c1c2c3c(sc2nc(N2CCNCC2)n1-c1cccc(Cl)c1)CCCCC3`, for which the cell number change was determined as 19.6%. The AC50 under setting [2] was 6.51 µM [rising, full curve].
Regarding `Cc1cc(CNC(=O)c2cc(Br)ccc2Cl)nn1C`, the AC50 under setting [1] is 0.731 µM [rising, single point].
Regarding `O=C(CSc1nnc(-c2cccnc2)n1Cc1ccco1)c1ccc(Cl)cc1`, the cell number change is -9.81%.
Regarding `CC1CCN(CCCOc2ccc(Cl)cc2Br)CC1`, the cell number change was 14.4%. In addition, under setting [2], the AC50 is 29.1 µM [rising, single point].
With `COC(=O)[C@H](CCSC)NC(=O)NCc1ccc(S(N)(=O)=O)cc1`, the cell number change is -0.324%.
`COc1cccc(C(=O)CSc2nnc(CNS(=O)(=O)c3ccc(C)cc3)n2C)c1`: under setting [1], the AC50 is 6.51 µM [falling, single point].
Consider `O=c1c2ccccc2n(Cc2cccc(F)c2)c(=O)n1C1CCCC1`, for which the cell number change was -20.9%. The AC50 under setting [2] was 29.1 µM [rising, single point].
With `CCOC(=O)Cn1cc(C#N)c(=O)[nH]c1=O`, the cell number change is -35.8%. The AC50 under setting [1] was 4.61 µM [falling, full curve, poor fit]. The AC50 under setting [2] is 4.61 µM [falling, full curve, poor fit].
For `Cc1[nH]n(-c2cccc(Cl)c2)c(=O)c1-c1ccccc1`, the cell number change is -45.3%. In addition, the AC50 under setting [1] was 9.2 µM [falling, partial curve, poor fit]. Under setting [2], the AC50 is 16.4 µM [falling, single point].
Consider `CCOc1cc(C(N)=O)cc(OCC)c1OCC`, for which the cell number change was determined as 2.72%. Moreover, the AC50 under setting [1] was 0.651 µM [falling, partial curve, poor fit].
As for `COC(=O)c1c(N2C(=O)[C@H]3[C@@H](C2=O)[C@]2(C(=O)Nc4c(C)cccc42)N2CCC[C@@H]32)sc(C)c1C`, the cell number change was determined as 0.643%. For the same compound, the AC50 under setting [2] is 6.51 µM [rising, single point].
As to `O=C(COC(=O)c1cc2c(s1)CCCC2)NCc1ccccc1Cl`, the cell number change is -28%. For the same compound, the AC50 under setting [2] was 29.1 µM [falling, single point].
For the compound `Nc1nonc1-n1nnc(C(=O)N/N=C/c2ccccc2Cl)c1CSc1ccccc1`, the cell number change turned out to be 34.8%. Besides, the AC50 under setting [1] was 0.146 µM [rising, full curve]. In addition, the AC50 under setting [2] was 0.146 µM [rising, full curve, poor fit].
On to `Cc1ccc(Cl)cc1-n1c(=O)cc(N2CC(C)OC(C)C2)[nH]c1=O` (stereo not drawn), for which the AC50 under setting [2] was 29.1 µM [falling, single point].
The same measure, in the same setting: under `C/C(=N\NC(=O)CCc1ccc(S(=O)(=O)N2CCOCC2)cc1)c1ccc(OC(F)F)cc1` stands 14.6 µM [falling, partial curve, poor fit].
For `COc1ccc(C(C(=O)NC2CCCC2)N(Cc2ccc(C)cc2)C(=O)c2ccn[nH]2)cc1OC` (stereo not drawn), the cell number change is -16.4%. The AC50 under setting [2] is 6.51 µM [falling, single point].
Regarding `Cc1ccc(C(=O)CN2CCN(c3ccccn3)CC2)c(C)c1`, the cell number change is -12.5%.
On the same count and under the same terms, to `Cc1nc2scc(C)n2c(=O)c1S(=O)(=O)Nc1ccc(N2CCOCC2)c(Cl)c1` belongs -1.32%.
As for `COc1ccc(OC)c(NC(=O)CCCCCn2nnc3ccccc3c2=O)c1`, the cell number change is 22.7%. Moreover, the AC50 under setting [2] is 18.4 µM [rising, single point].
In the case of `CCOc1ccccc1N1CCN(CC(=O)NCCc2ccc(S(N)(=O)=O)cc2)CC1`, the cell number change is -22.5%. Besides, under setting [1], the AC50 was 0.00461 µM [falling, full curve, poor fit].
On to `COc1cc(OC)c(C(=O)NCCCn2ccnc2)cc1OC`, for which the cell number change is -4.48%.
As to `O=S(=O)(NCc1cc(-c2ccc(Cl)cc2)no1)c1ccc(Cl)cc1`, the cell number change is -30.2%. Moreover, the AC50 under setting [1] is 18.4 µM [falling, single point].
